# Measured values as given in PubChem BioAssay AID1347076 (National Center for Advancing Translational Sciences (NCATS), 2019).
# Out of some 400,000 compounds screened, about 13,000 (3.2%) were called active. The shares of active, inactive and inconclusive entries below differ from those in the screen. Calls follow the shape of the dose curve; as a rule, active = well fitted cell-killing curve with a large enough effect; inconclusive = small, poorly fitted or top-dose-only effect, or effect the other way; inactive = flat fitted curve, though single readings scatter. Potencies of inconclusive entries are doubtful fits and often do not repeat.
# Assay: qHTS assay for MDR1-selective chemotherapeutics: Primary screen using the drug-selected MDR subline cells KB-V1; also: nearly all actives have a fitted effect of over 60% in size
# Details: KB-V1 MDR cells viability, CellTiter-Glo, 72 h; series mostly up to 46.1 µM
# In short: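 Potencies derive from concentration-effect curves fitted to normalized luminescence (CellTiter-Glo) of KB-V1 cells treated for 72 h at 37 degrees C in phenol-red-free DMEM containing 10% FBS.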
# Potency is read from the fitted curve at half-maximal effect.
row,Compound,Potency
1,CC(=O)Nc1ccc(S(=O)(=O)N2CCC(c3nnc(-c4ccc(C)cc4)o3)CC2)cc1,inactive
2,CC(C)(C)NC(=O)NC(=O)COC(=O)c1cccc(S(=O)(=O)N2CCCCC2)c1,"inconclusive: 0.0082 µM [rising, full curve]"
3,COc1cc(CN2CC(=O)N(c3cccc(Cl)c3C)C2=S)cc(OC)c1OC,inactive
4,Fc1ccc(CNCc2ccco2)cc1,"inconclusive: 29.1 µM [rising, single point]"
5,COc1ccccc1NS(=O)(=O)c1ccc(Cl)c(NC(=O)CN2C(=O)c3ccccc3C2=O)c1,inactive
6,Cc1sc(NC(=O)C2C3CCC(O3)C2C(=O)O)c(C(=O)OC(C)C)c1-c1ccc(Cl)cc1 (centres undefined),"inconclusive: 20.6 µM [cytotoxic, partial curve, poor fit]"
7,COc1cc(-c2nc3cnccn3c2Nc2ccc(C)cc2)ccc1O,"inconclusive: 20.6 µM [cytotoxic, single point]"
8,Cc1ccc(S(=O)(=O)c2[nH]c(-c3ccccc3)nc2SCC(N)=O)cc1,inactive
9,Cc1cc(C(=O)OCC(=O)NC(=O)c2cccn2C)c2ccccc2n1,inactive
10,O=C1/C(=C/c2ccncc2)SC(=S)N1N1CCOCC1,inactive
11,CN1C(=O)C2(CCCCC2)C1c1ccccc1 (centres undefined),"inconclusive: 29.1 µM [rising, partial curve, poor fit]"
12,CCOC(=O)c1ccc2c(c1)N(CC)C(=O)c1ccccc1S2,"inconclusive: 14.6 µM [cytotoxic, partial curve]"
13,CN(Cc1nc2ccccc2c(=O)[nH]1)c1ccccc1,"inconclusive: 23.1 µM [cytotoxic, single point]"
14,CC1C(=O)N(c2ccc(S(=O)(=O)N(C)C)cc2)C1(/C=C/c1ccccc1)C(=O)NC1CCCC1 (centres undefined),"inconclusive: 1.64 µM [cytotoxic, full curve, poor fit]"
15,CCc1ccc2[nH]c(=O)c(CN(Cc3ccccc3)Cc3nnnn3Cc3ccco3)cc2c1,"inconclusive: 20.6 µM [cytotoxic, single point]"
16,Cc1ccc(S(=O)(=O)Nc2cc(C)cn(Cc3ccccc3)c2=O)cc1,"inconclusive: 20.6 µM [cytotoxic, single point]"
17,Cc1ccc(C)c(N2CCN(C(=O)CCS(=O)(=O)c3cc4c(cc3Cl)NC(=O)CO4)CC2)c1,active: 16.4 µM
18,Cc1ccc(NC(=O)CSc2nnc(CCNC(=O)OC(C)(C)C)o2)c(C)c1,"inconclusive: 10.3 µM [cytotoxic, partial curve, poor fit]"
19,COc1ccc(N2C(=O)CCC(C(=O)c3ccccc3)=C2C)cc1,"inconclusive: 20.6 µM [cytotoxic, single point]"

# Some of these compounds in order of number of heavy atoms, high to low.
row,Compound,Potency
15,CCc1ccc2[nH]c(=O)c(CN(Cc3ccccc3)Cc3nnnn3Cc3ccco3)cc2c1,"inconclusive: 20.6 µM [cytotoxic, single point]"
2,CC(C)(C)NC(=O)NC(=O)COC(=O)c1cccc(S(=O)(=O)N2CCCCC2)c1,"inconclusive: 0.0082 µM [rising, full curve]"
7,COc1cc(-c2nc3cnccn3c2Nc2ccc(C)cc2)ccc1O,"inconclusive: 20.6 µM [cytotoxic, single point]"
